doi:10.1101/2022.03.29.486232
These are yes or no findings as the source states them, for the method shown. In cells and extracts the contact can be indirect. Here binding means that the protein was enriched with, or labelled near, the bait; the list need not be complete. Tags and fused reporters may be left off the sequences shown.

T1: leucine-rich glioma-inactivated 1 (LGI1), native, from mouse brain (mouse (endogenous in mouse brain)) (UniProt Q9JIA1)
T1 sequence: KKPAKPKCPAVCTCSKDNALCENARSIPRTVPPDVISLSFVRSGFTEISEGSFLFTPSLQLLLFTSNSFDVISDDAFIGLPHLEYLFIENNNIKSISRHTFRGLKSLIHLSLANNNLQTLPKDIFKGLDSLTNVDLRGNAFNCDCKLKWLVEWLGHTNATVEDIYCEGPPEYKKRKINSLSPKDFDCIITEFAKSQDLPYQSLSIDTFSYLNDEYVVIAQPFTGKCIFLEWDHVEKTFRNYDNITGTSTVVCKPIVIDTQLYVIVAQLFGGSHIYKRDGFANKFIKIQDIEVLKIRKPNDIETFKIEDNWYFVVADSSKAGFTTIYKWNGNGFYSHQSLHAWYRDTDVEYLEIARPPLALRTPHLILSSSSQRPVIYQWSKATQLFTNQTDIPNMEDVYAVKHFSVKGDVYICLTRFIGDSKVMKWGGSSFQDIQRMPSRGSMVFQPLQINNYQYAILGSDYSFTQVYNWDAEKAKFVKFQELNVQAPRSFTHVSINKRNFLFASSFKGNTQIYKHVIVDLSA

B1: CASK (protein, UniProt O70589 1-926)
chain: MADDDVLFEDVYELCEVIGKGPFSVVRRCINRETGQQFAVKIVDVAKFTSSPGLSTEDLKREASICHMLKHPHIVELLETYSSDGMLYMVFEFMDGADLCFEIVKRADAGFVYSEAVASHYMRQILEALRYCHDNNIIHRDVKPHCVLLASKENSAPVKLGGFGVAIQLGESGLVAGGRVGTPHFMAPEVVKREPYGKPVDVWGCGVILFILLSGCLPFYGTKERLFEGIIKGKYKMNPRQWSHISESAKDLVRRMLMLDPAERITVYEALNHPWLKERDRYAYKIHLPETVEQLRKFNARRKLKGAVLAAVSSHKFNSFYGDPPEELPDFSEDPTSSGLLAAERAVSQVLDSLEEIHALTDCSEKDLDFLHSVFQDQHLHTLLDLYDKINTKSSPQIRNPPSDAVQRAKEVLEEISCYPENNDAKELKRILTQPHFMALLQTHDVVAHEVYSDEALRVTPPPTSPYLNGDSPESANGDMDMENVTRVRLVQFQKNTDEPMGITLKMNELNHCIVARIMHGGMIHRQGTLHVGDEIREINGISVANQTVEQLQKMLREMRGSITFKIVPSYRTQSSSCERDSPSTSRQSPANGHSSTNNSVSDLPSTTQPKGRQIYVRAQFEYDPAKDDLIPCKEAGIRFRVGDIIQIISKDDHNWWQGKLENSKNGTAGLIPSPELQEWRVACIAMEKTKQEQQASCTWFGKKKKQYKDKYLAKHNAVFDQLDLVTYEEVVKLPAFKRKTLVLLGAHGVGRRHIKNTLITKHPDRFAYPIPHTTRPPKKDEENGKNYYFVSHDQMMQDISNNEYLEYGSHEDAMYGTKLETIRKIHEQGLIAILDVEPQALKVLRTAEFAPFVVFIAAPTITPGLNEDESLQRLQKESDVLQRTYAHYFDLTIINNEIDETIRHLEEAVELVCTAPQWVPVSWVY
B2: Bcas1 (protein, UniProt Q80YN3 1-633)
chain: MGNQMSVPLRPGDQEHDPGADTCKVTSDNECVQNGNPVVLSTRVIQHYEEVDLGISSSKDNVATSSPKTMEAQAVGDASGKNLGKEAKTKAPAARSHFFLTLSRPVPGRPGDQGTDSSAASGRFDVSPSAAPENKDPSEHGALPVAAAPGQAPDKTPGCPEAKQQTLPATGPLAPSPPESQAEAPAQDKDFGFLNRFFKLDKGRESAPVNSQPKEAKGSEDPEQATEAPAVPGNPHGVSAGEDIVDSEQRGQDVDTLSYSVPGDPEVPGTTKEDPQVVDTTENSSSIMSFFKTLVSPNKTETKKDPEDTKATKADSVCDGHAAGQKMSETQAKSKKKRLDSPRLGLSFRKLFRHKDTENSPTTSANLKSDKANFTPQETRGKTKATKSCSPPPPPPEPTSEGRDSGKEKAGPTSLPLGKLFWKKSVKEDTLSTGAEENAVCESPVETVRLEEVESSLQTVDLSEETQPEPTDVKVKEESKPRKTPLMAFLRQMSVRSSEGIPRSEESNVKDSSCQTSNSVEKTPSPPEPEPAGTAQKNKETSSSKDKKSVDKKSATENSKQKNGKQEVREPAPCVQPPTVEANAMQTGDKTPKKSEKRRQSLGGFLKGLGPKRMSDAQVQTDPVSIGPVGKSK
B3: Kv beta subunit KCAB2 (protein, UniProt P62482 1-367)
chain: MYPESTTGSPARLSLRQTGSPGMIYSTRYGSPKRQLQFYRNLGKSGLRVSCLGLGTWVTFGGQITDEMAEHLMTLAYDNGINLFDTAEVYAAGKAEVVLGNIIKKKGWRRSSLVITTKIFWGGKAETERGLSRKHIIEGLKASLERLQLEYVDVVFANRPDPNTPMEETVRAMTHVINQGMAMYWGTSRWSSMEIMEAYSVARQFNLIPPICEQAEYHMFQREKVEVQLPELFHKIGVGAMTWSPLACGIVSGKYDSGIPPYSRASLKGYQWLKDKILSEEGRRQQAKLKELQAIAERLGCTLPQLAIAWCLRNEGVSSVLLGASNAEQLMENIGAIQVLPKLSSSIVHEIDSILGNKPYSKKDYRS
B4: excitatory amino acid transporter EAA1 (GLAST-1) (protein, UniProt P56564 1-543)
chain: MTKSNGEEPRMGGRMERLQQGVRKRTLLAKKKVQSLTKEDVKSYLFRNAFVLLTVTAVIVGTILGFALRPYKMSYREVKYFSFPGELLMRMLQMLVLPLIISSLVTGMAALDSKASGKMGMRAVVYYMTTTIIAVVIGIIIVIIIHPGKGTKENMYREGKIVQVTAADAFLDLIRNMFPPNLVEACFKQFKTSYEKRSFKVPIQSNETLLGAVINNVSEAMETLTRIREEMVPVPGSVNGVNALGLVVFSMCFGFVIGNMKEQGQALREFFDSLNEAIMRLVAVIMWYAPLGILFLIAGKIVEMEDMGVIGGQLAMYTVTVIVGLLIHAVIVLPLLYFLVTRKNPWVFIGGLLQALITALGTSSSSATLPITFKCLEENNGVDKRITRFVLPVGATINMDGTALYEALAAIFIAQVNNFDLNFGQIITISITATAASIGAAGIPQAGLVTMVIVLTSVGLPTDDITLIIAVDWFLDRLRTTTNVLGDSLGAGIVEHLSRHELKNRDVEMGNSVIEENEMKKPYQLIAQDNEPEKPVADSETKM
B5: CN37 (2’,3’-cyclic-nucleotide 3’-phosphodiesterase) (enzyme, UniProt P16330 1-420)
chain: MNTSFTRKSHTFLPKLFFRKMSSSGAKEKPELQFPFLQDEDTVATLHECKTLFILRGLPGSGKSTLARLILEKYHDGTKMVSADAYKIIPGSRADFSEAYKRLDEDLAGYCRRDIRVLVLDDTNHERERLDQLFEMADQYQYQVVLVEPKTAWRLDCAQLKEKNQWQLSADDLKKLKPGLEKDFLPLYFGWFLTKKSSETLRKAGQVFLEELGNHKAFKKELRHFISGDEPKEKLELVSYFGKRPPGVLHCTTKFCDYGKAAGAEEYAQQEVVKRSYGKAFKLSISALFVTPKTAGAQVVLTDQELQLWPSDLDKPSASEGLPPGSRAHVTLGCAADVQPVQTGLDLLDILQQVKGGSQGEAVGELPRGKLYSLGKGRWMLSLTKKMEVKAIFTGYYGKGKPVPIHGSRKGGAMQICTII
B6: Glutathione S-transferase Mu 1 (GSTM1) (enzyme, UniProt P10649 1-218)
chain: MPMILGYWNVRGLTHPIRMLLEYTDSSYDEKRYTMGDAPDFDRSQWLNEKFKLGLDFPNLPYLIDGSHKITQSNAILRYLARKHHLDGETEEERIRADIVENQVMDTRMQLIMLCYNPDFEKQKPEFLKTIPEKMKLYSEFLGKRPWFAGDKVTYVDFLAYDILDQYRMFEPKCLDAFPNLRDFLARFEGLKKISAYMKSSRYIATPIFSKMAHWSNK
B7: MPP2 (protein, UniProt Q9WV34 1-552)
chain: MPVAATNSESAMQQVLDNLGSLPNATGAAELDLIFLRGIMESPIVRSLAKAHERLEETKLEAVRDNNLELVQEILRDLAELAEQSSTAAELARILQEPHFQSLLETHDSVASKTYETPPPSPGLDPTFSNQPVPPDAVRMVGIRKTAGEHLGVTFRVEGGELVIARILHGGMVAQQGLLHVGDIIKEVNGQPVGSDPRALQELLRSASGSVILKILPSYQEPHLPRQVFVKCHFDYDPARDSLSPCKEAGLRFNAGDLLQIVNQDDANWWQACHVEGGSAGLIPSQLLEEKRKAFVKRDLELTPTSGTLCGSLSGKKKKRMMYLTTKNAEFDRHELLIYEEVARMPPFRRKTLVLIGAQGVGRRSLKNKLILWDPDRYGTTVPYTSRRPKDSEREGQGYSFVSRGEMEADIRAGRYLEHGEYEGNLYGTRIDSIRGVVASGKVCVLDVNPQAVKVLRTAEFVPYVVFIEAPDYETLRAMNRAALESGVSTKQLTEADLRRTVEESSRIQRGYGHYFDLSLVNSNLERTFRELQTAMEKLRTEPQWVPVSWVY
B8: mitochondrial amino acid transporter GHC1 (Slc25a22) (protein, UniProt Q9D6M3 1-323)
chain: MADKQISLPAKLINGGIAGLIGVTCVFPIDLAKTRLQNQQNGQRMYASMSDCLIKTIRSEGYFGMYRGAAVNLTLVTPEKAIKLAANDFFRHQLSKDGQKLTLPKEMLAGCGAGTCQVIVTTPMEMLKIQLQDAGRIAAQRKILAAQAQLSAQGGAQPSVEAPAPPRPTATQLTRDLLRNHGIAGLYKGLGATLLRDVPFSIVYFPLFANLNQLGRPSSEEKSPFYVSFLAGCVAGSAAAVAVNPCDVVKTRLQSLERGVNEDTYSGFLDCARKIWRHEGPSAFLKGAYCRALVIAPLFGIAQVVYFLGIAESLLGLLQEPQA
B9: stratifin (14-3-3 S) (protein, UniProt O70456 1-248)
chain: MERASLIQKAKLAEQAERYEDMAAFMKSAVEKGEELSCEERNLLSVAYKNVVGGQRAAWRVLSSIEQKSNEEGSEEKGPEVKEYREKVETELRGVCDTVLGLLDSHLIKGAGDAESRVFYLKMKGDYYRYLAEVATGDDKKRIIDSARSAYQEAMDISKKEMPPTNPIRLGLALNFSVFHYEIANSPEEAISLAKTTFDEAMADLHTLSEDSYKDSTLIMQLLRDNLTLWTADSAGEEGGEAPEEPQS
B10: Kv beta subunit KCAB1 (protein, UniProt P63143 1-401)
chain: MQVSIACTEHNLKSRNGEDRLLSKQSSNAPNVVNAARAKFRTVAIIARSLGTFTPQHHISLKESTAKQTGMKYRNLGKSGLRVSCLGLGTWVTFGGQISDEVAERLMTIAYESGVNLFDTAEVYAAGKAEVILGSIIKKKGWRRSSLVITTKLYWGGKAETERGLSRKHIIEGLKGSLQRLQLEYVDVVFANRPDSNTPMEEIVRAMTHVINQGMAMYWGTSRWSAMEIMEAYSVARQFNMIPPVCEQAEYHLFQREKVEVQLPELYHKIGVGAMTWSPLACGIISGKYGNGVPESSRASLKCYQWLKERIVSEEGRKQQNKLKDLSPIAERLGCTLPQLAVAWCLRNEGVSSVLLGSSTPEQLIENLGAIQVLPKMTSHVVNEIDNILRNKPYSKKDYRS

Molecular target: T1, leucine-rich glioma-inactivated 1 (LGI1), native, from mouse brain (mouse (endogenous in mouse brain))
Test: affinity purification with mass spectrometry

binding, binds:
B1, B2, B3, B4, B5, B6, B7, B8, B9, B10
